# PubChem BioAssay AID652054 (National Center for Advancing Translational Sciences (NCATS), 2013)
# The chains behind the UniProt entries cited, without tags or fusion partners.
# UniProt P35462, whole entry, looked up: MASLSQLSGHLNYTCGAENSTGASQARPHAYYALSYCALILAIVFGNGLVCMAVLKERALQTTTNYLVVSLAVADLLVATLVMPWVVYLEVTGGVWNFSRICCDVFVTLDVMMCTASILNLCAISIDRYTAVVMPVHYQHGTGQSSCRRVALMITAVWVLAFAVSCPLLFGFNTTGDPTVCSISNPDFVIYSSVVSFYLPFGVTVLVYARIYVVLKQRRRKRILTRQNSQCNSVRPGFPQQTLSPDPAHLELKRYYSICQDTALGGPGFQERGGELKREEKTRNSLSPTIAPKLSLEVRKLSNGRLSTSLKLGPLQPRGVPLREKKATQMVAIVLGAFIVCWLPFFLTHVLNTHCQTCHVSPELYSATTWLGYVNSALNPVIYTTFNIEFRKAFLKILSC
# Screen size: about 360,000 compounds; about 9,100 (2.5%) were called active. Inconclusive results, whose numbers are uncertain, are shown with a selection of clear calls. No stated cut-off is given here; in the data, active means max response below about -50%; inconclusive means no clear call, values can overlap the other calls; inactive means above that.
# Biological target: D(3) dopamine receptor (Homo sapiens) (UniProt P35462)
# Experiment: qHTS of D3 Dopamine Receptor Antagonist: qHTS
# Conditions: D3R cells, DiscoveRx beta-arrestin luminescence, antagonist mode; hits give low values
# How it was run: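 Cells plated overnight at 1500 cells/well, then exposed to library compounds with dopamine controls for 90 minutes at 37 degrees C. DiscoveRx reagent added for 30–60 minutes at room temperature; luminescence read, quantitative HTS format.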
# On the % scale 0 is the no-effect control and ±100 the full control effect.
row,Compound,"max response, negative = inhibition"
1,COc1ccc(OC)c(NC(=O)C2CCN(S(=O)(=O)c3c(C)noc3C)CC2)c1,inconclusive: -30.6%
2,Oc1ccc(/C=N/Nc2ccc3ccccc3c2)c(O)c1,inactive: -20.6%
3,COc1cccc(C(=O)Nc2cc(S(=O)(=O)N3CCCCC3)ccc2OC)c1,inconclusive: -30.6%
4,CC(C)(C)c1ccc(C(=O)Nc2ccc(Oc3cccnc3)nc2)cc1,inactive: -1.95%
5,CC(C)OC(=O)[C@H]1[C@H](c2ccc(Cl)cc2)[C@@](C#N)(C(N)=O)[C@@H]2C=CC(C(N)=O)=CN21,inconclusive: -39.7%
6,Cc1ccc(S(=O)(=O)Cn2nnnc2CN(Cc2ccco2)Cc2cccs2)cc1,inconclusive: -35.6%
7,O=c1[nH]c(CN2CCN(c3ccccc3O)CC2)nc2ccccc12,inconclusive: -31.3%
8,CCOCCc1c(O)nc(SCC)[nH]c1=O,inactive: 22.6%
9,Cc1c(C(=O)N(C)CC(=O)Nc2cccc(F)c2)oc2c(Cl)cccc12,inconclusive: -45.4%
10,COc1ccc(Br)cc1/C(C)=N/NC1=NCCN1,active: -52%
11,COc1ccc2cc(CO)n(C)c2c1,inconclusive: -34.4%
12,CN1CCN(C2=C(Cl)C(=O)N(CCc3ccccc3)C2=O)CC1,active: -71.1%
13,CC(C)(C)C(C(=O)NC1CCCC1)N1CCN(c2ncccc2C#N)CC1 (centres undefined),inconclusive: -36.5%
14,CCOC(=O)N1CCC(Nc2c(NCCCN3CCN(C4CCCCC4)CC3)c(=O)c2=O)CC1,inconclusive: -34.6%
15,Cc1ccc(/C=C(\C#N)c2nc3ccccc3[nH]2)s1,inconclusive: -45.7%
16,CCOC(=O)N1CCC(N2C(=O)c3ccccc3C2Nc2ccccc2C)CC1 (centres undefined),inactive: 6.87%
17,O=C(CSc1nc2cc3ccccc3cc2[nH]1)Nc1ccc(F)cc1,inactive: 15.3%
18,COc1ccc(OCc2cc(C(=O)NC3Cc4ccccc4C3)no2)c(Cl)c1,inactive: 1.72%
19,Cc1ccc(S(=O)(=O)NCC(C)n2cncn2)cc1 (centres undefined),inconclusive: -33.5%
20,CC(Cc1cccs1)NC(=S)Nc1ccc(Cl)c(Cl)c1 (centres undefined),inactive: -4.21%
21,COc1ccccc1Cc1c(-c2ccco2)nc2c(C)cc(Br)cn12,active: -92.4%

# Single values from above.
# max response, negative = inhibition, Cc1ccc(S(=O)(=O)Cn2nnnc2CN(Cc2ccco2)Cc2cccs2)cc1 is entered as inconclusive: -35.6%
# max response, negative = inhibition, CC(C)(C)c1ccc(C(=O)Nc2ccc(Oc3cccnc3)nc2)cc1 is entered as inactive: -1.95%

# Additional entries.

row,Compound,"max response, negative = inhibition"
1,COc1ccc(S(=O)(=O)CCC(=O)N2CCN(c3ccc(C(C)=O)cc3)CC2)cc1,inactive: 9.69%
2,COc1ccc(Cl)cc1NC(=S)NC1CCCC1,inconclusive: -33.2%
3,O=c1nc2ccccc2c2n1CC(CN1CCN(c3ccccc3F)CC1)N2 (centres undefined),active: -68.6%
4,CC(=O)N1CCN(c2ccccc2NC(=O)c2cc(Br)ccc2Cl)CC1,inconclusive: -33.2%
5,Cc1ccsc1/C=N/NC(=O)Cn1nc(C)c([N+](=O)[O-])c1C,inactive: -10.8%
6,CCN(CC(=O)NCc1ccc(F)cc1)C(=O)CN1CCN(c2cc(Cl)ccc2C)CC1,inconclusive: -34.2%
7,CCCNC(=S)N1CCC(C(=O)c2ccc(F)cc2)CC1,inconclusive: -38.5%
8,O=C1[C@H]2[C@@H](c3ccc(F)cc3)N3C(=O)N(c4ccc(C(F)(F)F)cc4)C(=O)[C@@]3(Cc3ccccc3)[C@H]2C(=O)N1C1CCCCC1,inactive: -13.4%
9,COc1ccc(CCC(=O)Nc2ccc(Br)cn2)cc1,inconclusive: -38%
10,CC(=O)Nc1cccc(C(=O)OCC(=O)N2CCN(C(=O)COC(=O)c3cccc(NC(C)=O)c3)CC2)c1,inconclusive: -35.5%
11,CN(C(=O)c1cccc(NC(=O)Cc2cccc(NC(=O)C3CCCN(C(=O)c4ccccc4)C3)c2)c1)C1CC1 (centres undefined),inactive: 30.5%
12,COc1cc2ccccc2cc1C(=O)N1CCCCC1,inactive: 6.51%
13,O=C(CN1CCC(n2nnc3ccccc32)CC1)Nc1ccc2c(c1)CCC2,active: -65.1%
14,Cc1ccc(C(=O)Nc2ccccc2Sc2ccccc2)cc1,inconclusive: -31.1%
15,COc1ccccc1C(=O)Nc1ccnn1C1CCN(CCC(C)c2ccc(C)o2)CC1 (centres undefined),inconclusive: -31.3%
16,Clc1ccc(CSc2nnc(CN3CCOCC3)n2-c2ccccc2)cc1Cl,inconclusive: -30.8%
17,CN1CCc2c(sc(NC(=O)c3ccc([N+](=O)[O-])o3)c2C(N)=O)C1,active: -56.3%
18,Cc1ccc(S(=O)(=O)NNC(=O)c2sc3nc(C)cc(C)c3c2-n2cccc2)cc1,inconclusive: -47.1%
19,NC(=O)c1c(-c2cccs2)csc1N,active: -53.5%
20,CCn1c(=O)c(C(=O)NNC(=O)c2cccc(Cl)c2)c(O)c2ccccc21,inactive: 25.3%
21,Cc1ccc(Cn2c(C3CCCN3c3nc(-c4ccc(F)cc4)cs3)nc3cc(C(F)(F)F)ccc32)cc1 (centres undefined),inactive: 1.53%

row,Compound,"max response, negative = inhibition"
1,COc1ccc(C(CCN2CCCCC2)c2c(OC)cc(OC)c3c(-c4ccccc4)cc(=O)oc23)cc1 (centres undefined),inconclusive: -44.8%
2,CCN1C(=O)[C@H]2[C@@H](c3ccc(-c4ccc(OC)cc4)cc3)N[C@@](Cc3ccccc3)(C(=O)OC)[C@H]2C1=O,inconclusive: -40%
3,COc1ccc(S(=O)(=O)Nc2ccc(F)c(F)c2)cc1C(=O)N1CCOCC1,inactive: 9.47%
4,Cc1cc2c(c(C)c1CCO)C(=O)[C@H](C)C2,active: -50.3%
5,O=C(C[C@H]1CC[C@H]2[C@@H](COC[C@@H](O)CN2S(=O)(=O)c2ccc(F)cc2)O1)N[C@@H]1CCN(Cc2ccccc2)C1,inconclusive: -45%
6,O=C(NCc1nc2ccccc2[nH]1)c1ccc([N+](=O)[O-])cc1,inconclusive: -44.9%
7,Cc1cccc(CNC(=O)CCc2nnc(C3CCCCC3)o2)c1,inactive: -8.68%
8,CCN(Cc1ccccc1)S(=O)(=O)c1cc(C(=O)c2c(N)n(C)c(=O)n(C)c2=O)ccc1OC,inactive: -10.3%
9,CCCCOP(=O)(OCCCC)C(Nc1ccccc1)c1ccc2c(c1)OCO2 (centres undefined),inactive: 25.2%
10,CC12CCC(C(=O)N(CSC(=S)N/N=C\c3ccccc3)C1=O)C2(C)C (centres undefined),active: -69.1%
11,Cc1ccc(NC(=O)C[n+]2cc(-c3ccccc3)n3c2CCC3)c(C)c1,inconclusive: -42.3%
12,Cc1ccc(-n2c(Cc3cccn3C)nnc2SCC(=O)N2CCN(c3ccccc3)CC2)cc1,active: -78.7%
13,O=C(O)c1cc(Nc2nc(N3CCOCC3)nc(N3CCOCC3)n2)ccc1Cl,inconclusive: -35%
14,S=c1[nH]nc(Nc2ccccc2)s1,inconclusive: -40.1%
15,CC(=O)NC1CC2CCCC(C1)N2Cc1ccc(C)cc1 (centres undefined),active: -113%
16,Cc1ccc(C(=O)NNC(=S)Nc2cccc3ccccc23)s1,active: -94.6%
17,O=C(NCCN1C(=O)S/C(=C\c2ccc(F)cc2)C1=O)c1cccc(S(=O)(=O)N2CCOCC2)c1,inactive: 17.1%
18,Cc1ccc2nc(-c3ccc(N4C(=O)CC(N5CCN(CCO)CC5)C4=O)cc3)sc2c1 (centres undefined),inconclusive: -45.3%
19,Cc1ccn2cc(-c3cccc(NS(C)(=O)=O)c3)nc2c1,inactive: -13.4%
20,Clc1ccccc1N1CCN(Cc2c[nH]c3ccccc23)CC1,active: -78.1%
21,COc1cccc(-n2sc3c(c2=S)-c2cc(OC)ccc2NC3(C)C)c1,active: -68.6%

row,Compound,"max response, negative = inhibition"
1,O=S(=O)(c1cc(Cl)ccc1Cl)N1CC2CCCN2c2ccc(C(F)(F)F)cc21 (centres undefined),inactive: 17.1%
2,CC(C)N(C(=O)[C@H]1C[C@H](CC(=O)NCCCn2ccnc2)C(=O)N2CCc3c([nH]c4ccc(Cl)cc34)[C@]12C)C(C)C,inconclusive: -42.9%
3,Cc1ccc(CN2CCC2(C)C(=O)NC(C)C)cc1 (centres undefined),inconclusive: -42%
4,CN1CCC(=C2c3ccccc3CCc3sccc32)CC1,active: -91.4%
5,O=C(O)c1ccccc1-c1ccc(C=c2sc3nc4cc(Br)cnc4n3c2=O)o1,active: -55.5%
6,O=c1cc(N2CCN(c3ccccc3Cl)CC2)[nH]c(=O)n1Cc1ccc(F)cc1,inconclusive: -35.4%
7,Cc1ccccc1C(=O)NCCN1CCC(n2c(=O)[nH]c3ccccc32)CC1,active: -109%
8,COc1ccc(CCNc2cc(C)nc3c(-c4ccccc4OC)cnn23)cc1OC,inactive: 29.7%
9,CC12CCC(=O)N1C(C(=O)NNC(=O)COc1cccc(C(F)(F)F)c1)CS2 (centres undefined),inconclusive: -35%
10,CN1C=CC2=C(C#N)C(N)C(C#N)(C#N)C(c3ccccc3)C2C1 (centres undefined),inconclusive: -36.7%
11,COc1ccc(/C=N/NC(=O)c2cc(-c3ccc(C)cc3C)nc3ccccc23)cc1COC(C)=O,inconclusive: -41.1%
12,Cc1cccc(COCC(CC(C)C)N2CCN(C(=O)c3ccc(C(C)(C)C)cc3)CCC2=O)c1 (centres undefined),inactive: 13.3%
13,COC(=O)C1=C(C)N(Cc2ccccc2)C(=NCCc2c[nH]c3ccccc23)N[C@H]1c1cccc(F)c1,inactive: -1.14%
14,COc1ccc(-c2cn[nH]c2-c2ccc(OCc3ccccc3)cc2O)cc1,inconclusive: -33.1%
15,COc1ccc(/C=C/c2ccc3c(Br)ccc(O)c3n2)cc1,inconclusive: -31.8%
16,COc1cccc(/C=N\NC(=O)C2C(=O)NCC2c2ccccc2)c1O (centres undefined),inconclusive: -44.1%
17,CCc1[nH]nc2c1C(c1ccc(Br)s1)C(C#N)=C(N)O2 (centres undefined),active: -55.6%
18,Fc1ccc(C(CCNCc2ccccn2)c2ccc(Cl)cc2)cc1 (centres undefined),inconclusive: -38.7%
19,COc1ccc2[nH]c(=O)c(C(c3nnnn3C3CCCC3)N(C)C3CCCCC3)cc2c1 (centres undefined),inconclusive: -42.2%
20,CCOC(=O)C1=C(C)NC(=S)N(C(C)=O)C1c1ccc(Cl)cc1 (centres undefined),inconclusive: -47.2%
21,COc1ccccc1N(C)S(=O)(=O)c1ccc(C(=O)NCC(c2ccco2)N2CCCCC2)cc1 (centres undefined),inconclusive: -48.1%

# An excerpt from above in order of SMILES length, ascending.
row,Compound,"max response, negative = inhibition"
17,CCc1[nH]nc2c1C(c1ccc(Br)s1)C(C#N)=C(N)O2 (centres undefined),active: -55.6%
20,CCOC(=O)C1=C(C)NC(=S)N(C(C)=O)C1c1ccc(Cl)cc1 (centres undefined),inconclusive: -47.2%
9,CC12CCC(=O)N1C(C(=O)NNC(=O)COc1cccc(C(F)(F)F)c1)CS2 (centres undefined),inconclusive: -35%
